Out of some 3,000 compounds screened, about 45 (2%) showed an effect of 50% or more. The list shows a part of the results.
test system: MOLM1 and UCSD/AML1 (averaged); assay: cell viability relative to DMSO control (POC); higher = less growth inhibition; conditions: 1 µM; 72 h
Description: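 Primary viability screen in the 3q26 EVI1-high AML cell lines MOLM1 and UCSD/AML1, compounds at 1 uM for 72 h. ATP CellTiter-Glo read-out given as percent viable over DMSO control (POC), averaged over duplicates. This mapping covers the TimTec NDL-3000 natural derivative library, whose compounds are identified by TimTec catalogue codes (ST...).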

Structure (SMILES) | cell viability [%]
CC(=O)OC1CCC2(C)C(CCC3(C)C2C(=O)C=C2C4CC(C)(C(=O)Nc5ccccc5)CCC4(C)CCC23C)C1(C)C (centres undefined) | 99.2
CN(C)c1cccc2c(S(=O)(=O)NC(CCCN=C(N)N)C(=O)O)cccc12 (centres undefined) | 103
COC(=O)C1=C(C(=O)OC)N(c2ccc(F)cc2)C(N)=C(C#N)C1c1ccc(O)c(OC)c1 (centres undefined) | 107
O=C(O)[C@@H](O)c1ccccc1 | 96.9
COc1c2c(c(Cl)c(-c3cc(CO)on3)c1OC)OCO2 | 97.2
COc1ccc(C(=O)n2nc(-c3ccccc3)c(Br)c2N)cc1OC | 98
Cc1cc2nc3[nH]c(=O)[nH]c(=O)c3nc2cc1C | 94.8
O=C(O)CNC(=O)c1ccccc1F | 104
O=C1CC(c2ccccc2Cl)CC2=C1C(c1ccc(O)cc1)Nc1ccccc1N2 (centres undefined) | 112
COc1ccccc1-c1c(C(F)(F)F)oc2c(CN3CC(C)OC(C)C3)c(O)ccc2c1=O (centres undefined) | 93.5
COC(=O)c1ccc2[nH]c(C)c(CN3CCc4ccccc4C3)c(=O)c2c1 | 103
COc1cccc(NC(=O)Cn2c(=O)cc(C(=O)N3CCc4ccccc4C3)c3ccccc32)c1 | 104
COc1ccc(C(=O)CCNc2ccc3c(c2)n(C)c(=O)n3C)cc1OC | 105
COc1ccc(C2C(C(=O)OCCOc3ccccc3)=C(C)NC3=C2C(=O)CC(C)(C)C3)cc1Br (centres undefined) | 99
COc1ccc(C(=O)NC2CCCCCC2)cc1OC | 105
CC(=O)OC1CCC2(C)C(CCC3(C)C2C(=O)C=C2C4CC(C)(C(=O)Nc5ccc([N+](=O)[O-])cc5)CCC4(C)CCC23C)C1(C)C (centres undefined) | 79.3
COc1ccc2[nH]c(C)c(CCNC(=O)c3ccc(OC)c(OC)c3)c2c1 | 93.6
O=C(Cn1cnc2ccccc2c1=O)c1ccc2c(c1)OCCO2 | 106
O=C(NCCCCCCNC(=O)/C(=C\c1ccccc1)NC(=O)c1ccccc1)/C(=C/c1ccccc1)NC(=O)c1ccccc1 | 108
COc1cccc(CNC(=O)CSc2nc3ccccc3c(=O)[nH]2)c1 | 103
CC(C)(C)OC(=O)NC(CCCCNC(=O)OCc1ccccc1)C(=O)O (centres undefined) | 96.3
CCC(=O)NC(N1CCCCC1c1cccnc1)(C(F)(F)F)C(F)(F)F (centres undefined) | 98.7

Structure (SMILES) | cell viability [%]
CCOC(=O)c1ccccc1NC(=O)c1cc(OC)c(OC)c(OC)c1 | 68.4
Cc1cc(=O)[nH]c2ccc(S(=O)(=O)N(C)CC34CC5CC(CC(C5)C3)C4)cc12 | 102
CN1CCc2c(c3ccccc3n2Cc2ccccc2)C1 | 92.9
CCCNC(=O)CN1CCc2c([nH]c3ccccc23)C1c1ccc(OC)cc1 (centres undefined) | 84.8
CCCc1cc(=O)[nH]c(SCc2ccc(C(=O)Nc3ccc(C)c(Cl)c3)cc2)n1 | 94.4
COc1ccc2[nH]c(=O)c(CNCc3ccccc3)cc2c1 | 105
COc1ccc(C2C3CCCCC3(O)CCN2C(=O)C2c3ccccc3Oc3ccccc32)c(OC)c1 (centres undefined) | 88.4
Cc1ccc(OCCOCn2cc(Br)c(=O)[nH]c2=O)cc1 | 99.7
N=c1cc(C(=O)Nc2ccc(-c3ccccc3)cc2)c2cc(Cl)ccc2o1 | 106
CC(=O)OC1CCC2(C)C(CCC3(C)C2CCC2C4C5OCC4(CCC5(C)C)CCC23C)C1(C)C (centres undefined) | 95.8
Cn1c(=O)c2c(nc3n(Cc4ccccc4)c(C45CC6CC(CC(C6)C4)C5)cn23)n(C)c1=O | 101
Cn1c(=O)c2cc(S(=O)(=O)N3CCc4ccccc4C3)ccc2n(C)c1=O | 102
COc1ccc(C2NC(C(=O)O)Cc3c2[nH]c2ccccc32)cc1COc1ccc(F)c(Cl)c1 (centres undefined) | 86.8
O=C1OC([C@@H](O)[C@@H](O)CO)[C@H](O)[C@@H]1O (some centres undefined) | 93
C[C@@H]1O[C@H](O)[C@@H](O)[C@H](O)[C@@H]1O | 98.1
CCOC(=O)CCC(=O)Nc1ccccc1C(N)=O | 101
CCCCCCOC(=O)c1ccccc1NC(=O)c1c(O)c2ccccc2[nH]c1=O | 97.5
O=C(O)C1CCCN1c1nc(-c2ccc(Cl)c(Cl)c2)cc(C(F)(F)F)n1 (centres undefined) | 99.8
O=C(O)c1ccc(Nc2nc(-c3ccc(Cl)cc3)nc3ccccc23)cc1 | 93.6
COCCOC(=O)c1c(C)n(CCC2=CCCCC2)c2c1cc(O)c1ccccc12 | 85.4
Cc1ccc(-n2nc(C(=O)NCC(=O)O)nc2-c2ccccc2)cc1 | 106
CCc1ccc(-n2c(C)c(C(=O)OCCOC)c3cc(O)c4ccccc4c32)cc1 | 103

Among those listed so far, 2 have an aryl thioether with sulfur outside any ring:
Structure (SMILES) | cell viability [%]
COc1cccc(CNC(=O)CSc2nc3ccccc3c(=O)[nH]2)c1 | 103
CCCc1cc(=O)[nH]c(SCc2ccc(C(=O)Nc3ccc(C)c(Cl)c3)cc2)n1 | 94.4

Continued.

Structure (SMILES) | cell viability [%]
COc1ccc(CCNC(=O)c2ccccc2NC(=O)c2ccc(OC)c(OC)c2)cc1OC | 87.9
CCOC(=O)/C=C1\NC(C)(C)Cc2cc3c(cc21)OCCO3 | 89.5
CCC(C)C(NC(=O)CCC(=O)O)C(=O)O (centres undefined) | 100
Cc1ccc2c(C)c(-c3ccc(Cl)cc3)c(=O)oc2c1 | 106
CCC1(C)OC(=O)N2CCc3ccccc3C21C (centres undefined) | 87
OC1(C#CCN2CCCCC2c2cccnc2)CCCCCC1 (centres undefined) | 97
CC(Nc1n[nH]c(=O)[nH]c1=O)C(=O)N/N=C/c1ccncc1 (centres undefined) | 94.8
CSc1ccc(S(=O)(=O)N2CCc3ccccc3C2)cc1 | 94.1
CCOC(=O)/C(C#N)=C\c1ccc(/C=C(\C#N)C(=O)OCC)cc1 | 98.7
Cc1ccc(C(=O)N2N=C(c3c(-c4ccccc4)c4cc(Br)ccc4[nH]c3=O)CC2c2ccccc2)cc1 (centres undefined) | 100
CSc1cccc(NC(=O)Cn2c(=O)cc(C(=O)N3CCCCC3)c3ccccc32)c1 | 96.9
COC(=O)c1ccccc1NC(=O)c1cccc(OC)c1 | 101
Cc1cc(S(=O)(=O)N2CCOCC2)c2[nH]c(=O)cc(C)c2c1 | 101
CCn1c(SCC(=O)Nc2cccc(C)c2C)nc2c(=O)[nH]cnc21 | 109
CC(C)CC(NS(=O)(=O)c1c(C(C)C)cc(C(C)C)cc1C(C)C)C(=O)O (centres undefined) | 90.6
O=[N+]([O-])C1=Cc2ccccc2OC1c1ccc2c(c1)OCO2 (centres undefined) | 2.67
CCCNC(=O)c1cc(=O)n(CC(=O)Nc2ccc(C)cc2)c2ccccc12 | 84.1
Cc1[nH]c2ccccc2c1CCNC(=O)c1ccc(Cl)c(Cl)c1 | 105
CC(C)OC(=O)C1=C(N)Oc2c(oc(CO)cc2=O)C1c1ccccc1C(F)(F)F (centres undefined) | 87.8
CCN(CC)c1ccc(C2C3CCCCC3(O)CCN2C(=O)c2ccccc2OC)cc1 (centres undefined) | 98.7

— the supplement of paper PMC11150407
